No constants are given. Whether binding was seen depends on the method and setting. Some entries that bind do so weakly or less than the wild type. No end group written: not given here.
T1: sTREM2 in plasma of hTREM2 knock in mice (human) (UniProt Q9NZC2)
T1 sequence (soluble receptor ectodomain, looked up): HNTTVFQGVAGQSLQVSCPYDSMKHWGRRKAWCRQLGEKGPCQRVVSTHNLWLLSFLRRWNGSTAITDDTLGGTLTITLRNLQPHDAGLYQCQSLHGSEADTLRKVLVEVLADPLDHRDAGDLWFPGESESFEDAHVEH

T2: sTREM2 in human CSF (human) (UniProt Q9NZC2)
T2 sequence: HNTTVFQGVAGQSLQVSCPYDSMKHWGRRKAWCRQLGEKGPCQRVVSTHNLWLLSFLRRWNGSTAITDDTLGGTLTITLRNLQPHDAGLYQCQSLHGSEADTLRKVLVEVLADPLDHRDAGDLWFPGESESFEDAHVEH


Tests used:
[1] = target: T1, sTREM2 in plasma of hTREM2 knock in mice (human); test: MSD immunoassay of plasma of huTrem2 KI/KI mice 24 h after 100 mg/kg i.v. antibody: capture by anti-TREM2 antibody, detection by sulfo-tagged anti-human antibody, normalised to the pre-dose baseline
[2] = target: sTREM2 in cynomolgus CSF (cynomolgus monkey); test: MSD assay on CSF
[3] = target: T2, sTREM2 in human CSF (human); test: MSD assay on CSF
[4] = target: recombinant cynomolgus TREM2 ECD (cynomolgus); test: SPR (Biacore)

Row | Binder | binding [1] | binding [2] | binding [3] | binding [4]
1 | CL0020188 (antibody, V domains shown, also called Clone CL0020188) VH: EVKLLDSGGGLVQAGGSLRLSCAGSGFTFTDFYMSWIRQPPGKAPEWLGVIRNKANGYTAGYNPSVKGRFTISRDNTQNILYLQMNTLRAEDTAIYYCARLTYGFDYWGQGVMVTVSS VL: DIVMTQGALPNPVPSGESASITCQSSKSLLHSNGKTYLNWYLQRPGQSPQLLIYWMSTRASGVSDRFSGSGSGTDFTLKISSVEAEDVGVYYCQQFLEYPFTFGSGTKLEIK | binds |  |  | 
2 | CL0020188-4 (antibody, V domains shown, Humanized variant of CL0020188) VH: EVQLVESGGGLVQPGGSLRLSCAGSGFTFTDFYMSWVRQAPGKGPEWLSVIRNKANGYTAGYNPSVKGRFTISRDNSKNTLYLQMNSLRAEDTAVYYCARLTYGFDYWGQGTLVTVSS VL: DIVMTQTPLSLPVTPGEPASISCQSSKSLLHSTGKTYLNWYLQKPGQSPQLLIYWMSTRASGVPDRFSGSGSGTDFTLKISRVEAEDVGVYYCQQFLEYPFTFGQGTKVEIK |  | binds | binds | binds
3 | CL0020188-7 (antibody, V domains shown, Humanized variant of CL0020188) VH: EVQLVESGGGLVQPGGSLRLSCAASGFTFTDFYMSWVRQAPGKGLEWVSVIRNKANAYTAGYNPSVKGRFTISRDNSKNTLYLQMNSLRAEDTAVYYCARLTYGFDYWGQGTLVTVSS VL: DIVMTQTPLSLPVTPGEPASISCQSSKSLLHSTGKTYLNWYLQKPGQSPQLLIYWMSTRASGVPDRFSGSGSGTDFTLKISRVEAEDVGVYYCQQFLEYPFTFGQGTKVEIK |  | binds | binds | binds
4 | CL0020123-5 (antibody, V domains shown, Humanized variant of CL0020123) VH: QVQLVQSGAEVKKPGASVKVSCKASGFSIEDFYIHWVRQAPGQGLEWMGWIDPEQGESKYAPKFQGRATITADTSTSTAYMELSSLRSEDTAVYYCHADHGNYGSTMDYWGQGTLVTVSS VL: DIQMTQSPSSLSASVGDRVTITCHASQHINVWLSWYQQKPGKAPKLLIYKASNLHTGVPSRFSGSGSGTDFTLTISSLQPEDFATYYCQQGQTYPRTFGQGTKVEIK |  |  | binds | 
5 | CL0020123-7 (antibody, V domains shown, Humanized variant of CL0020123) VH: QVQLVQSGAEVKKPGASVKVSCKASGFSIEDFYIHWVRQAPGQGLEWMGWIDPENGESKYAPKFQGRVTITADTSTSTAYMELSSLRSEDTAVYYCHADHGNYGSTMDYWGQGTLVTVSS VL: DIQMTQSPSSLSASVGDRVTITCHASQHINVWLSWYQQKPGKAPKLLIYKASNLHTGVPSRFSGSGSGTDFTLTISSLQPEDFATYYCQQGQTYPRTFGQGTKVEIK |  |  | binds | 
